From US20060019262

Key:
[1] = biological target: T1, APOBEC1 (Rattus norvegicus) (UniProt P38483); test: enzyme reaction in vitro; conditions: purified recombinant protein, label: 5'-biotin
T1 sequence (looked up, limits assumed): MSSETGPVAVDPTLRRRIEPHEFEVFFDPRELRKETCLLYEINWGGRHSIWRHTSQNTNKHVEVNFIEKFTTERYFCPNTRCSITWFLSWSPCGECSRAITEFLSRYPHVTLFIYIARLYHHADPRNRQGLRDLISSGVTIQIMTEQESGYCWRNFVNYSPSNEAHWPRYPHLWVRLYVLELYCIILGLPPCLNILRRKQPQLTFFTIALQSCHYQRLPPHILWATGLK

[2] = biological target: T2, APOBEC1 E63A (Rattus norvegicus) (UniProt P38483); test: enzyme reaction in vitro; conditions: no deamination, Zn-coordination motif mutant; purified recombinant protein; label: 5'-biotin, 3'-fluorescein or 3'-32P-ddA; single-stranded DNA
T2 sequence (looked up, limits assumed): T1 sequence (looked up, limits assumed) with E63A

[3] = deamination disfavoured with purine 5' of C, assignment from text rule, 3' label, single-stranded DNA
[4] = 5' pyrimidine context, assignment from text rule, 3' label, single-stranded DNA

| Sequence | activity on this sequence [1, 3] | activity on this sequence [1, 4] | other results |
| --- | --- | --- | --- |
| ATTATTATTATTAGCTATTTATTTATTTATTTATTTATTT [oligo with AGC context] | less active |  |  |
| ATTATTATTATTCCGCGGATTTATTTATTTATTTATTTATTT (double strand) [SPM168 duplex with complement] |  |  | activity on this sequence ([1]; activity blocked by complementary oligonucleotide, not by irrelevant one, 3' label, variant of SPM168): not active |
| ATTATTATTATTCCGCGGATTTATTTATTTATTTATTTATTT [SPM168] |  |  | activity on this sequence [2]: not active; activity on this sequence ([1]; dC deamination by UDG assay, buffer R, 37 C, EDTA, third C of TCCGCG much less favoured, 3'-fluorescein or 3'-32P-ddA, single-stranded DNA): active |
| ATTATTGTTATTAACTATTTGTTTATTTGTTTATTTATTT [oligo with AACT context] | less active |  |  |
| ATTATTGTTATTATCAATTTGTTTATTTGTTTATTTATTT [oligo with ATCA context] |  | active |  |
| ATTATTGTTATTATCGATTTGTTTATTTGTTTATTTATTT [oligo with ATCG context] |  | active |  |

Positions count from the first letter of the chain named. For at least one entry, the source does not settle the construct or the ends of the probe. Negatives hold for the conditions tested. Where a protein sequence is shown, tags need not be part of it. For some of these results: Weaker means in comparison with the reference protein, sequence or condition of that experiment.
